Measurements from publication PMC7336374.
These are yes or no findings as the source states them, for the method shown. For some assays here: Binding seen in cells or lysates may run through a third protein. Some binding calls cover weakened binding; strength is not graded here. Where a sequence is shown, tags or fusion partners need not be part of it.

How the values were obtained:
[1] = molecular target: T1, LAX1, yeast two-hybrid fusion (rice (Oryza sativa L.)) (UniProt Q7XAQ6); assay: two-hybrid; OsPID in pGADT7, partners in pGBKT7, co-transformed into yeast strain AH109; growth on synthetic dropout medium without Trp, Leu, Ade and His at 28°C
T1 sequence: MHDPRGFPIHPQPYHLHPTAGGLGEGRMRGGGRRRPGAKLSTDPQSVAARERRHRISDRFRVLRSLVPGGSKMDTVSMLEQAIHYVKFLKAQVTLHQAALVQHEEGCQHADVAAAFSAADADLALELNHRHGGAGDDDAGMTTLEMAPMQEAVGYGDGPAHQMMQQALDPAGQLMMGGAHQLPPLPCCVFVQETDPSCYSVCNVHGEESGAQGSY

[2] = molecular target: T2, OsMADS16, yeast two-hybrid fusion (rice (Oryza sativa L.)) (UniProt Q944S9); assay: as above
T2 sequence: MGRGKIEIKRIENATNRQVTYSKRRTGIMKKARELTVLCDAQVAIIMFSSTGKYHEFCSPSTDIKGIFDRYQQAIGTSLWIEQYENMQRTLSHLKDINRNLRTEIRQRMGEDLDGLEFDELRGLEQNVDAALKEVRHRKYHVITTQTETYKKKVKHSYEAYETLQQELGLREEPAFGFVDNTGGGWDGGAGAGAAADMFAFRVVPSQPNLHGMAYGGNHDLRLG

[3] = molecular target: T3, GFP-tagged OsMADS16 (rice (Oryza sativa L.)) (UniProt Q944S9); assay: co-IP; FLAG-tagged OsPID and GFP-tagged partners co-transformed into rice protoplasts; which was precipitated is not told
T3 sequence: T2 sequence

[4] = molecular target: T4, OsMADS16, BiFC fusion in SCYCE (rice (Oryza sativa L.)) (UniProt Q944S9); assay: split reporter; BiFC: SCYNE(R)::OsPID with SCYCE fusions, Agrobacterium GV3101 with the p19 strain infiltrated into 4- to 6-week-old tobacco leaves; SCFP signal by confocal microscopy
T4 sequence: T2 sequence

[5] = molecular target: T5, GST-tagged OsMADS16 (rice (Oryza sativa L.)) (UniProt Q944S9); assay: pull-down; in vitro pull-down of HIS-tagged OsPID and GST-tagged partners expressed in E. coli BL21; which was held is not told
T5 sequence: T2 sequence

B1: OsPINOID (OsPID), yeast two-hybrid fusion (protein, UniProt Q2QM77 1-484)
chain: MVAAVRAPVKPEMVELSPAAMERYSSDADTTAPNSSLSSAASSTGSLARCSSLSRLSFDCSPSAAVAAAATSCSPPRASVLLRPHRSGDVAWAAIRAASTTSAAPLGPRDFKLVRRIGGGDIGTVYLCRLRSSPERESPCMYAMKVVDRRAVARKQKLGRAAAEKRILRQLDHPFLPTLFADFDATPHFSCAVMEFCPGGDLHSLRHRMPSRRFPLPSARFYAAEVLLAIEYLHMMGIVYRDLKPENVLIRADGHIMLTDFDLSLQSTTSPSLDGDTDTDDEASGGASCFPDHLLRFKRRRNAVAAPRPRFVAEPVDARSCSFVGTHEYVAPEVASGGAHGAAVDWWAYGVFLYELIYGRTPFAGATNEATLRNIVRRPLAFPSGSGSCGPADADARDLIARLLAKDPAARLGSRRGAADVKSHPFFKSLNLALLRSSRPPVVPGAGAGAAPLHRSQSCKAAPTTPPPPTTTKPANATARFDLF
binding [1]: binds
binding [2]: binds

B2: 3xFLAG-tagged OsPINOID (OsPID) (protein, UniProt Q2QM77 1-484)
chain: B1 chain
binding [3]: binds

B3: OsPINOID (OsPID), BiFC fusion in SCYNE(R) (protein, UniProt Q2QM77 1-484)
chain: B1 chain
binding [4]: binds

B4: HIS-tagged OsPINOID (OsPID) (protein, UniProt Q2QM77 1-484)
chain: B1 chain
binding [5]: binds
